Experimental data published in article PMC7559818.
These are yes or no findings as the source states them, for the method shown. In cells and extracts the contact can be indirect. Some entries that bind do so weakly or less than the wild type.

Amino acid sequences for entries named in this document (tags omitted).
UniProt P51532: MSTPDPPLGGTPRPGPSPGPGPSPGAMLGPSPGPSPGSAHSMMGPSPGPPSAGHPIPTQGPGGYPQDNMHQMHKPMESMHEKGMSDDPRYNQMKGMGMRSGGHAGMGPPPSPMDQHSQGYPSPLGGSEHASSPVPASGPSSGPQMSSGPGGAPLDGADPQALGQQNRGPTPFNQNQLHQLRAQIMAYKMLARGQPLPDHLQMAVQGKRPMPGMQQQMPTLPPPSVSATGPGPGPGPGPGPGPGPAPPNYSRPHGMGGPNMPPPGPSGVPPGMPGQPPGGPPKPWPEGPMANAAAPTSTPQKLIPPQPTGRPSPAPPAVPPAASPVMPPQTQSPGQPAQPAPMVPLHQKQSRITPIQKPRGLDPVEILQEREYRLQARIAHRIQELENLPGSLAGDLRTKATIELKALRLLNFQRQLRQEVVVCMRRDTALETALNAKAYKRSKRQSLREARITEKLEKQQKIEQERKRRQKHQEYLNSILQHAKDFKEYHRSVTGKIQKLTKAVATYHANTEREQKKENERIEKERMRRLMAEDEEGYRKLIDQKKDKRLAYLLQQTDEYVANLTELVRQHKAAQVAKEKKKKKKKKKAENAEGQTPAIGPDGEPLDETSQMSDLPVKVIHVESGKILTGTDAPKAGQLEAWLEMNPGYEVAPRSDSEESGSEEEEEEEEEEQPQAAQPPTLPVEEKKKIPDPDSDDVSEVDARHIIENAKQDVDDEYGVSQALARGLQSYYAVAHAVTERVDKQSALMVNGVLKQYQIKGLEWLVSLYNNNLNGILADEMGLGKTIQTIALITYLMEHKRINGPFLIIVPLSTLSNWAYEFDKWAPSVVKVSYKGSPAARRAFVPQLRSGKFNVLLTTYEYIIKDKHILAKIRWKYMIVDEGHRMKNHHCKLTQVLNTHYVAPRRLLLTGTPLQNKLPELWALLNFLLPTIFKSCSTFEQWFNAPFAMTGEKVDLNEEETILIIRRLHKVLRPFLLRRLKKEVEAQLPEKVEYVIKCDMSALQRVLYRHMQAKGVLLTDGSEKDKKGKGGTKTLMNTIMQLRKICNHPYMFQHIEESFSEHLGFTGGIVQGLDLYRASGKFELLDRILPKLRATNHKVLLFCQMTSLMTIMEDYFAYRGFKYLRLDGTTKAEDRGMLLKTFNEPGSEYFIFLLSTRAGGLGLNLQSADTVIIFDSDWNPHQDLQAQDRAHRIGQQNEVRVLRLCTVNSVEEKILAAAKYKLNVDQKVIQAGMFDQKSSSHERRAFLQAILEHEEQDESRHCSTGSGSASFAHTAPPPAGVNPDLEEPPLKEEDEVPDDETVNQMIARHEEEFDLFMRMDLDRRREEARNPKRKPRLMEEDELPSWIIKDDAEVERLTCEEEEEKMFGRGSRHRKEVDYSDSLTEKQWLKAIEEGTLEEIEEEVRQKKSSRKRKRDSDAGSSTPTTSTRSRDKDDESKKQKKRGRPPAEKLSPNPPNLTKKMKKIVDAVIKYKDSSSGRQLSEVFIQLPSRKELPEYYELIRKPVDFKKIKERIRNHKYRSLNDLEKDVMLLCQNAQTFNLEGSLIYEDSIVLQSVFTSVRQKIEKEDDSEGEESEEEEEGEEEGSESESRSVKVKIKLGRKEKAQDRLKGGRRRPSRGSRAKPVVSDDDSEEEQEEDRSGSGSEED
UniProt Q13950: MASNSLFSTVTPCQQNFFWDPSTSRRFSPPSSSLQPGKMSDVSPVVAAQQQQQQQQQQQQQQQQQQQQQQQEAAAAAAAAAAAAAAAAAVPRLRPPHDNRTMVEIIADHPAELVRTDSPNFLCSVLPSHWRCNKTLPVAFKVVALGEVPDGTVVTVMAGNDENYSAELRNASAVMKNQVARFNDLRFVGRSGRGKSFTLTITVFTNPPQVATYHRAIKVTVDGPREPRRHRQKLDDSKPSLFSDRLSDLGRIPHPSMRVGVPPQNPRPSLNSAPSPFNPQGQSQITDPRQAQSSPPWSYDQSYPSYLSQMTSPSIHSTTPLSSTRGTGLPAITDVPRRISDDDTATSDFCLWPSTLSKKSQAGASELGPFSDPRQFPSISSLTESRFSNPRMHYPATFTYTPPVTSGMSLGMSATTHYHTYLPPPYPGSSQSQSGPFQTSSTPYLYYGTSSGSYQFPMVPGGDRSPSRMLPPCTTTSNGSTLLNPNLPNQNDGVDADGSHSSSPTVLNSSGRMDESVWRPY

Target: BRG1 (endogenous, RKO cells) (human (endogenous in RKO)) (UniProt P51532)
Experiment: co-IP; endogenous proteins in RKO cell lysates; IP with anti-RUNX2, anti-BRG1 or control IgG antibody (1 ug per mg protein, 4 °C, 8-12 h), Protein A/G beads; western blot

With “RUNX2 (endogenous, RKO cells) (from UniProt Q13950 1-521)” the binding was “binds”.
